These are yes or no findings as the source states them, for the method shown. Some entries that bind do so weakly or less than the wild type.
Target: Hansenula polymorpha Cdc13 (Hansenula polymorpha DL-1 (ATCC 26012, Ogataea parapolymorpha DL-1)) (UniProt W1QJ57)
Experiment: two-hybrid; Gal4-BD (pGBKT7) and Gal4-AD (pGADT7) fusions cotransformed into S. cerevisiae AH109; HIS3 reporter, growth on SC-Leu-Trp-His; 30°C for four days

binding: binds
B1: Hansenula polymorpha Cdc13 (protein, UniProt W1QJ57 1-403)
chain: MSQKSVDILRVRDLPVTTFTRKRIMGLVVGITTRDRPTKPIVVHMTDFSRNPSVAQSEMNYANCDPPLFDAPEQADSIIDVAFYPESVTHLKRIFGDKVNARWFDNRTASFYPLYQHATVISLRLRSKTWGDQIDLIADPGFSDNCYSQIWPVSTLEARDNPAAETIYDPNENNYALAREVFRDWQLQCSTYFKSNPKIKQVVGDLCESVTSMTYSPPQKLHRHTSPEQYSDTGFLSDMVSSDDEGPPKKEYKREVPVKQSRYVKDTPNVTFPVSQIPLADYTGAYFIYVQIMRLETRTADLIYKSFPENTIMTKAIDVLVKEVDSAATLRIRVEGYDLFRFAGITFRYPLLDMTAAEAETAKKLAALVHKPLRMLVKPYALPLEAATVNTGRCYRWLYTEYP

Source: publication PMC7245964
